Library screen at single concentrations

Chains of the proteins cited; added tags and fusions are not shown. Residues count along the entry.
UniProt I6X8D2, whole entry: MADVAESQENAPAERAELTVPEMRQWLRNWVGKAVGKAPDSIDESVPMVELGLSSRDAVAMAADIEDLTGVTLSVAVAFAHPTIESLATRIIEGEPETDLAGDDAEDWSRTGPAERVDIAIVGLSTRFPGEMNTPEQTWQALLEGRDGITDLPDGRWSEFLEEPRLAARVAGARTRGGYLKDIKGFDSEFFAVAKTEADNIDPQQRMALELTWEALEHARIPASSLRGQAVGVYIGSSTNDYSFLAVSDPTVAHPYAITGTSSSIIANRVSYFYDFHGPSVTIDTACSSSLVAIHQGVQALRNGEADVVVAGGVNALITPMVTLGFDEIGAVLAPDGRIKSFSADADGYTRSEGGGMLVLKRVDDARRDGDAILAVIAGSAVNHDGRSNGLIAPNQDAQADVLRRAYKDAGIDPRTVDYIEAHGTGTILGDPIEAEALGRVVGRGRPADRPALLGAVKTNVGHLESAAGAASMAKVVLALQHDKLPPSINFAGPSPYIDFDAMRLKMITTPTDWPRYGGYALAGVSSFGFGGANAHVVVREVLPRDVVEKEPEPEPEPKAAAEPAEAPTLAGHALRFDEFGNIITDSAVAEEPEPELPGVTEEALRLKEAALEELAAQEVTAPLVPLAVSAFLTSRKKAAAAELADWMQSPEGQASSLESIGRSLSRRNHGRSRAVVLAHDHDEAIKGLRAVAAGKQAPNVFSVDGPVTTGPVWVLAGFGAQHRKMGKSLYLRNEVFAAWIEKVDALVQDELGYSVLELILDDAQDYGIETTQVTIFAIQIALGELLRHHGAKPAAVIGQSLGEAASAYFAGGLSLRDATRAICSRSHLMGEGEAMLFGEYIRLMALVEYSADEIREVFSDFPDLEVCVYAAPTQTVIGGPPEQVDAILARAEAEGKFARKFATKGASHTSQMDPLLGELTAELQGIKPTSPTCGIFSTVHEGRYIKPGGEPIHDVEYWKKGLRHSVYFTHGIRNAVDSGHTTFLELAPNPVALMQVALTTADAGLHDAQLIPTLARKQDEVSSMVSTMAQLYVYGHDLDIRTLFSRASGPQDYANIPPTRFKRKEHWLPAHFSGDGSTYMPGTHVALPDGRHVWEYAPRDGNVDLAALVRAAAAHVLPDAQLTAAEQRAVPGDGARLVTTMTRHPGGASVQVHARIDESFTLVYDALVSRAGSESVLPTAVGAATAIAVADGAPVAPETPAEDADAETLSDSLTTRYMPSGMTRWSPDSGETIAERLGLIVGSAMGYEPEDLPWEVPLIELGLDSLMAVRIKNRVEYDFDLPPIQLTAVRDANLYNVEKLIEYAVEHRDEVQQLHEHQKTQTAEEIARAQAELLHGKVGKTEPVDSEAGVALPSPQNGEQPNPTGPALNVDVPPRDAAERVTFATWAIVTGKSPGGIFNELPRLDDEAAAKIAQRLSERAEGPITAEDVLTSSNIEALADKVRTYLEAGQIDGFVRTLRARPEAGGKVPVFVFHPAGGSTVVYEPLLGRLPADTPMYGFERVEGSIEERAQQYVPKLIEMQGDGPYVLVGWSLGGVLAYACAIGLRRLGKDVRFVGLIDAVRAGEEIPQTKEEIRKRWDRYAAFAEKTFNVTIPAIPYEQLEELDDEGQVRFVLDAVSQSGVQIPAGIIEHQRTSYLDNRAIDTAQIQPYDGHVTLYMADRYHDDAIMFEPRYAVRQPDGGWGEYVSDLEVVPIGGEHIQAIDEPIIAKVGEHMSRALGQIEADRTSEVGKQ
UniProt A4I591, 1-473: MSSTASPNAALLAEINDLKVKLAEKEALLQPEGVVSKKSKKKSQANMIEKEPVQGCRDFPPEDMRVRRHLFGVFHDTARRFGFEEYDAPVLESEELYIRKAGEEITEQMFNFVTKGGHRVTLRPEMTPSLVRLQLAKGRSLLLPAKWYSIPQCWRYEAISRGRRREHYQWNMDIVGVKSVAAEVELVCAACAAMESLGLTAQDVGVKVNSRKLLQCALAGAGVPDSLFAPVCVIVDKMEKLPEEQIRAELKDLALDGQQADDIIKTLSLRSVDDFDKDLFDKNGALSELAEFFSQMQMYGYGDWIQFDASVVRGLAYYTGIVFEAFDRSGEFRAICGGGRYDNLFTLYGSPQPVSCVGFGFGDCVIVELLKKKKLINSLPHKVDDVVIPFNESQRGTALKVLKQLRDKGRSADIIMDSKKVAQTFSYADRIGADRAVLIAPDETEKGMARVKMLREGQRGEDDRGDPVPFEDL

Measurements from “University of Dundee, Small-Polar-MMV Screening Library” (2021), ChEMBL document CHEMBL3988442.

Leishmania in macrophages: 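Cell assay of Leishmania donovani living inside macrophages; the read-out is not stated. Concentration: 30 µM. Direction is inferred from retests: higher values go with stronger inhibition. About 69,000 compounds were tested under these conditions; 1.5% (about 1,000) showed 50% or more at least once.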
Pks13 thioesterase: 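Polyketide synthase Pks13, Mycobacterium tuberculosis (UniProt I6X8D2). Enzyme assay of the thioesterase domain of polyketide synthase 13; the read-out is not stated. Tested at 30 µM. Higher reads as stronger inhibition (inferred from which compounds were picked for retests). Of about 67,000 compounds tested this way, about 300 (0.46%) reached 50% or more in at least one test.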
LiHisRS: 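Histidine-tRNA ligase, Leishmania infantum (UniProt A4I591). Enzyme assay of histidyl-tRNA synthetase; the read-out is not stated. Tested at 30 µM. Higher reads as stronger inhibition (inferred: compounds with an IC50 in retests scored well above the rest). The assay is labelled LdHisRS but filed under L. infantum. About 69,000 compounds were tested under these conditions; 0.6% (about 410) showed 50% or more at least once.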

Results are given as percent effect. How 0% and 100% were set is not recorded. Most values in the screen are low, and negative values occur. Compounds were drawn at random from those tested, without regard to their results. Two or more numbers in one place are separate tests of the same structure; such repeats can differ widely. A dash means the value is not listed here; it may have been measured.

| SMILES | Leishmania in macrophages | Pks13 thioesterase | LiHisRS |
|---|---|---|---|
| `Cc1ccc(C(=O)N2CCCC(c3[nH]ncc3S(C)(=O)=O)C2)s1` (centres unmarked) | -5.542 and 9.192 | -34.73 | -4.348 |
| `O=C(Cc1cnc(-n2cccc2)s1)NCCCO` | 41.02 | -5.027 | 17.5 |
| `Cc1nnc2ccc(N3CCN(CCc4ccccn4)CC3)nn12` | 6.334 | -11.38 | 7.692 |
| `Cn1c(-c2ccccc2Cl)nc2cc(C(=O)NCCS(C)(=O)=O)cnc21` | -1.394 | -26.45 | 11.48 |
| `O=C1NCC(C(=O)Nc2ncc(Cc3cccc(F)c3)s2)N1` (centres unmarked) | 0.4863 | 3.763 | 14.04 |
| `[H][C@]12CC[C@]([H])(CN(C(=O)c3cccnc3)C1)N(Cc1ncc[nH]1)C2` | 25.09 | - | - |
| `c1cc(COC[C@H]2CCC[C@]23CNCCO3)ccn1` | - | 0.3546 | 19.09 |
| `Cc1c[nH]c(CN(C)C(=O)c2cccc(CCC(C)(C)O)c2)n1` | 27.51 | -12.71 | 22.33 |
| `CC(=O)NCC(=O)N1Cc2nccn2CC(Cn2cccn2)C1` (centres unmarked) | 18.29 | -23.07 | 7.519 |
| `CC(C)c1nccn1C1CCCN(C(=O)CN(C)C2CC2)C1` (centres unmarked) | -1.85 | -13.92 | 18.42 |
| `COc1ccccc1OCc1cc(C(=O)N2CCC(C(C)O)CC2)n[nH]1` (centres unmarked) | 20.65 | -22.58 | 15.15 |
| `Cc1ccc(NC(=O)NC(C)C(=O)N2CCS(=O)(=O)CC2)cc1` (centres unmarked) | 19.65 | -7.944 | 19.23 |
| `Cc1cccc(C(=O)N2CCN(S(C)(=O)=O)[C@@H](C)C2)c1C` | -10.95 | -9.768 | 1.923 |
| `O=C(c1ccoc1)N1CCC2(C1)CN(c1ncccn1)C2` | 18.91 | -12.51 | 22.86 |
| `CCc1nc(CN(C)C(=O)NCc2cccc(NC(C)=O)c2)cs1` | 7.629 | - | 7.937 |
| `Cn1cc(CN2CCC3(CCN(c4cnn(C)c4)C3=O)C2)cn1` (centres unmarked) | - | -0.7473 | 10.09 |
| `Cc1ccc(C)c(S(=O)(=O)NCCNc2ccc(-n3cccc3)nn2)c1` | 4.595 and -2.54 | -32.02 | 8.696 |
| `CN(C)CCNC(=O)c1ccccc1NC(=O)c1cc(Cl)ccc1Cl` | -7.828 | 5.879 | 17.39 |
| `O=C1C=CC=N/C1=C(/O)NCCNS(=O)(=O)N1CCCCCC1` | 35.92 | -35.82 | 2.618 |
| `O=C(C[C@@H]1COC[C@H]2CN(Cc3ccncc3)C[C@@H]12)N1CCOCC1` | - | -13.55 | 15.53 |
| `Cn1cc(NC(=O)N2CCCC2c2cccnc2)ccc1=O` (centres unmarked) | 5.347 | -20.55 | 100 |
| `CN(Cc1ccccn1)C1CC2(CCN(Cc3cccnc3)CC2)C1.O=C(O)C(F)(F)F.O=C(O)C(F)(F)F.O=C(O)C(F)(F)F` | 11.41 | - | - |
| `O=c1n(CCNc2cccc3ccccc23)nc2ccccn12` | 17.28 | 18.11 | 30.85 |
| `Cc1nc(CN2C(=O)CC[C@@H]3[C@H]2CCN3C(=O)c2ccc[nH]2)cs1` | - | 4.061 | 0 |
| `COc1ccc(Cl)cc1C(=O)N(C)Cc1cc(C)on1` | -8.745 | 17.41 | 13.21 |
| `Cn1ccnc1-c1cnn(CC(=O)Nc2ccnn2C)c1` | 12.4 | 1.262 | 11.11 |
| `Cc1cc(C(=O)N2CCCC(n3nc(C)cc3C)C2)on1` (centres unmarked) | -1.203 | -5.212 | 8.264 |
| `CCOC(=O)c1coc(N2CCC(N3CCC(O)CC3)CC2)n1` | 34.43 | -4.732 | 11.57 |
| `OC[C@@H]1[C@H]2CN(c3ccccn3)CCN2C[C@H]1c1ccccc1` | - | 7.467 | 4.124 |
| `CN(C)C[C@@H]1CN(C(=O)c2cc(-c3ccccc3)n[nH]2)C[C@@H]1CO` | 29.36 | -9.062 | 20 |
| `COc1cc(N2CCCC(c3nccn3Cc3cccnc3)C2)ncn1` (centres unmarked) | 2.721 | -16.18 | 5.479 |
| `CN(Cc1ccc(-n2cccn2)cc1)c1nc(N)nc2c1CCNCC2` | 40.8 | -3.758 | 3.39 |
| `O=C(c1cc(F)cc2[nH]cnc12)N1CCCC1Cn1cccn1` (centres unmarked) | -3.876 | -10.87 | 15.32 |
| `Cc1nn(CC(O)CN2CCc3ccccc3C2)c(=O)c2ccccc12` (centres unmarked) | 9.877 | -43.97 | 8.333 |
| `Cc1noc([C@@H]2C[C@H]3CN(Cc4scnc4C)C[C@H]3O2)n1` | - | -22.83 | 19.74 |
| `Cn1c(CN2CCC(N3CCNC3=O)CC2)cc(=O)n(C)c1=O` | -4.229 | -14.37 | 19.64 |
| `O=C(C1CCOCC1)N1CCO[C@H]2[C@@H](OCc3ccncc3)CC[C@@H]21` | - | -9.671 | 17.31 |
| `CC1N(C)C(=O)COC12CCN(C(=O)Cc1ccsc1)CC2` (centres unmarked) | 12.72 | -25.69 | 5.172 |
| `COCC1CN(CC2CC2)Cc2nn(C)cc21.O=C(O)C(F)(F)F` (centres unmarked) | -5.38 | - | - |
| `CC(C)N(C)Cc1nnc2n1CCCN(S(=O)(=O)C1CC1)C2` | - | -30.6 | 12.28 |
| `COCC(=O)NCc1nn(CCN2CCCC2)c(=O)c2ccccc12` | -6.753 | -2.388 | 19.57 |
| `CC(NCC(=O)Nc1ccc(N2CCCCCC2)cc1)c1cccs1` (centres unmarked) | 11.41 | 26.44 | 3.614 |
| `Cc1nc(C)n(CC2CCCN2CC(=O)NCCc2ccccc2)n1` (centres unmarked) | -0.6086 | -9.401 | 7.692 |
| `Cc1cnc(C(=O)N2CCCC(Cn3cc(C4CC4)nn3)C2)cn1` (centres unmarked) | -4.067 | -0.8679 | 11.67 |
| `Cc1ccc(CNC(=O)C2CCCCN2C(=O)OC(C)(C)C)cn1` (centres unmarked) | -2.15 | 56.81 | 15.15 |
| `Cc1cc(C)nc(C2CCCN2C(=O)c2cnco2)n1` (centres unmarked) | 10.01 | -28.89 | -2.817 |
| `O=C(c1ccncc1)N1CCCC2(COCCN(c3ccccc3)C2)C1` (centres unmarked) | - | 3.303 | 13.73 |
| `NC(=O)NC1(C(=O)N2CCc3c(Cl)cccc3C2)CCCCC1` | 15.64 | 5.261 | 7.843 |
| `Cc1noc(C2CN(S(=O)(=O)C3CC3)Cc3ccnn3C2)n1` (centres unmarked) | 21.28 | 0.8359 | 21.05 |
| `COc1cc(NC2CCS(=O)(=O)C2)ncn1` (centres unmarked) | -35.33 | -4.867 | 15.66 |
| `CCc1ccc(CN2CCC(CNS(=O)(=O)C3CC3)C2)nc1` (centres unmarked) | 33.66 | -17.5 | 6.452 |
| `CC(C)n1cnc2c(N3CCCC3)nc(C3CCNCC3)cc21` | - | 4.784 | 31.43 |
| `O=C(NCC1CC1)C1CSCN1S(=O)(=O)c1cc(F)cc(F)c1` (centres unmarked) | -34.35 | 0.2501 | 8.434 |
| `O=C(O)C(F)(F)F.[H][C@@]12CCN(c3ncccn3)[C@@]1([H])CCN2S(=O)(=O)c1ccc(F)cc1` | 31.25 | - | - |
| `CC1(C)OCC2(CO1)CN(C(=O)c1cccc3ccccc13)C2` | -10.53 and -7.283 | -30.14 | 12.17 |
| `COCC(=O)N1C[C@@H](OCc2cccnc2)[C@H]2OCCC[C@@H]21` | - | -10.94 | 14.55 |
| `NC(=O)c1ccc(CNC(=O)NCc2cc[nH]n2)cc1` | 8.629 | 0.3388 | 13.95 |
| `CN(C)C(=O)Cn1c2c(ccc1=O)CC(NCc1cccnc1)CC2` (centres unmarked) | 26.13 | -28.56 | 15.52 |
| `Cc1cnn(CC2CCCN2C(=O)c2cnc(-c3ccco3)s2)c1` (centres unmarked) | -11.15 | 4.666 | 7.018 |
| `CN(CCc1cn[nH]c1)Cc1nc(Cc2cccc(C(F)(F)F)c2)no1` | 30.52 | -19.27 | 13.11 |
| `COc1ncc(CN2CCCC2c2[nH]ncc2C(=O)N(C)C)cn1` (centres unmarked) | 24.9 | -27.35 | 14.08 |
| `CNC(=O)C1(c2cnccn2)CCCN1C(=O)c1ccc(OC)cc1` (centres unmarked) | 10.78 | -21.86 | 19.79 |
| `CCC(=O)c1ccc(OCC(=O)N2CCNCC2C(=O)NC2CC2)cc1` (centres unmarked) | 23.03 | -16.16 | 0 |

Repeated from the top, 4 entries:

- Cc1ccc(C(=O)N2CCCC(c3[nH]ncc3S(C)(=O)=O)C2)s1 (centres unmarked) : Leishmania in macrophages: -5.542% and 9.192%; Pks13 thioesterase: -34.73%; LiHisRS: -4.348%
- O=C(Cc1cnc(-n2cccc2)s1)NCCCO : Leishmania in macrophages: 41.02%; Pks13 thioesterase: -5.027%; LiHisRS: 17.5%
- Cc1nnc2ccc(N3CCN(CCc4ccccn4)CC3)nn12 : Leishmania in macrophages: 6.334%; Pks13 thioesterase: -11.38%; LiHisRS: 7.692%
- Cn1c(-c2ccccc2Cl)nc2cc(C(=O)NCCS(C)(=O)=O)cnc21 : Leishmania in macrophages: -1.394%; Pks13 thioesterase: -26.45%; LiHisRS: 11.48%